From the supplement of paper PMC11237882
The other results are listed elsewhere or left out. Values are worked out from sequencing counts and are noisy.

Biological target: T1, Homer1 EVH1 domain
T1 chain: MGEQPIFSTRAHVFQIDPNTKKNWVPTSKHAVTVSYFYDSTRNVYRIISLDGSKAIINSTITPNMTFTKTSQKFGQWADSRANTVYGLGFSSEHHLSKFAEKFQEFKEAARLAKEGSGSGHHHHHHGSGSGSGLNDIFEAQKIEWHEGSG
Assay: enrichment score (AUC of log2 frequency ratio across FACS sorting rounds) (log2 AUC); higher = stronger enrichment for Homer1 EVH1 binding

| Binder | enrichment score |
| --- | --- |
| PPAGTPDAAHPGPSVVPVLLPLLAGTLLLLGRPLHR | 2 |
| KEYGSLKDSTKDDNSNPGGKTDEPKGKTEAYLEAIR | -0.446 |
| NLTSVLERLEDTKDNSSVRKETKLFSLFLMNIIFRK | 0.81 |
| QDPKMQVYKDEQVVVIKDKYPKARYHWLVLPWTSIS | 0.928 |
| MALNNFLFAQCACYFLAFLFSFVVVVPLSENGHDFR | 2.22 |
| SVSTSENSTSALADVSWTQFNIIILTVIIIVVVLLM | -0.686 |
| PEHNTDFGAFKHLYMLLVNAFNLSQNSLSKKSLNVW | -1.89 |
| ELWAPNMCHLQLMETFLILMMGSWLMQAGFILYRPG | 3.31 |
| QGMFIFLFLCVLSRKIQEEYYRLFKNVPCCFGCLSC | 0.373 |
| LIGEYLHLAFYYFLLVLYILCSFLSYCLLLWLGSFL | 2.62 |
| EFYAVTGFPYPTTGTAVAYRGPHLRGRGRAVYNTFR | -0.382 |
| ERSGLSEWLGNKLTPLQSVPAPALAIILSLLVATFT | 3.17 |
| VPTPTPPSKSGSLLDSDNFIGLFVFVLCLLYSSIRT | -2.29 |
| IVGFAIMFFIIFFAYAQLGFLVFGSQVDDFSTFQNS | -0.48 |
| MGPPSLVLCLLSATVFSLLGGSSAFLSHHRLKGRFQ | -0.399 |
| VMAYDRYIAISQPLRYVTIMNTQLCVGLVVAAWVVI | 3.46 |
| EYLELRFNKCVRLCGTVLFIVQTILYTGIVIYAPAL | -0.609 |
| IFVLDYLIIFISYVLILKTVLSIASREERAKALITC | 2.67 |
| RGRATGITGNFANIGGALASLVMILSIYSRTLPWII | 1.73 |
| ASLLLSALLLGCLVALGVQYHRDPSHSTCLTEACIP | -1.16 |
| MGAGLSWYHGVMGLLHPQPIESLLWAYCILAGSLVS | 0.835 |
| VTSLGKYIFASILGHVIHGGIVLPLIYFVFTRKNPF | -2.26 |

| Binder | enrichment score |
| --- | --- |
| SEERRRPHKEEEEEAYYPPAPPPYSETDSQASRERR | 5.64 |
| VKDRTISFLGCVVQFFFFCTFVVTESFLLAVMAYDL | 1.28 |
| ERTSEETIRIYSLRLFLNCIVLAVLGACFYAIYVAT | 2.59 |
| TNYPLMMLTAGLLISNCLCHFFIFPWCQPCLHIRAA | 2.37 |
| EPSSETGNPRHLHVLIGTSVVKLPFTILLFFLLHRW | 1.17 |
| LSRTSTALPADSYQIGAIAGIIILVLVVLFLLALFI | 4.69 |
| MKANYSAEERFLLLGFSDWPSLQPVLFALVLLCYLL | 1.4 |
| MALERLCSVLKVLLITVLVVEGIAVAQKTQDGQNIG | 0.166 |
| RLYEKDWASNASSGLTAQARIIMLIVIAPIICSLSW | 0.0545 |
| KGDVGVGTIVGSAVFNILCIIGVCGLFAGQVVALSS | 2.74 |
| DGSSFSGRVFRVTFLMLAVSLTVPLLGAMMLLESPI | 1.83 |
| LTSSNTENSPWIRNVIPALLANTCLLVVVAAAASVA | 4.61 |
| MVAATVAAAWLLLSAAACAQQEQDFYDFKAVNIRGK | 4.52 |
| REEWQYVFLIASLVHYGGVIFYGVFASGEKQPWAEP | -1 |
| QVLKRHRKLFTFGVTFSTFLLALFYITKGGIYVLTQ | -0.035 |
| HAFSAGLGGAIGYVLGGLDWTQTFLGSWFRTQNQVL | 1.75 |
| DHKFIENIGYVLYGIYNVTMVVVLLTMLIAMITSSY | 3.69 |
| ILIPIIVGAGLSGLIIVIVIAYVIGRRKSYAGYQTL | 1.28 |
| MPGKMVVILGASNILWIMFAASQAFKIETTPESRYL | 2.58 |
| RVSFLGLDLDAQQARVGQWLLLFLGIALLVATLGLS | 2.31 |
| CGACAALGALTASGLLLCLVPWSLRITWMGAHGAGV | -0.532 |
| QQPEPVLGLGSVEQPHEVPSVLGTPLLQPPENFAKG | 1.77 |
